Results as given in the supplement of paper PMC7661543.
± gives the standard deviation of the averaged measurements. Differences between knockout arms are mostly noise.

Tested on: ZR-75-1
Assay: relative cell number vs DMSO control (72 h) (% of DMSO); higher = less growth inhibition (more cells)
Protocol: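 QMAP-Seq: a pool of 5 breast cancer cell lines (ZR-75-1, SKBR3, HCC-38, MDA-MB-231, BT-20), each carrying 12 doxycycline-inducible Cas9 sgRNA perturbations (11 knockouts plus non-targeting sgNT), was treated with compounds for 72 h at four 10-fold doses (10 nM-10 uM or 1 nM-1 uM range). Barcodes were amplified and sequenced, and cell number was interpolated from 293T spike-in standard curves. The result is expressed as % of the median of DMSO wells. Two biological replicates.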

[1] = sgRNA knockout: sgATF3, 1000 nM
[2] = sgRNA knockout: sgATF3, 10000 nM
[3] = sgRNA knockout: sgATF4, 1000 nM
[4] = sgRNA knockout: sgATF4, 10000 nM
[5] = sgRNA knockout: sgATF6, 1000 nM
[6] = sgRNA knockout: sgATF6, 10000 nM
[7] = sgRNA knockout: sgATG7, 1000 nM
[8] = sgRNA knockout: sgATG7, 10000 nM
[9] = sgRNA knockout: sgERN1, 1000 nM
[10] = sgRNA knockout: sgERN1, 10000 nM
[11] = sgRNA knockout: sgHSF2, 1000 nM
[12] = sgRNA knockout: sgHSF2, 10000 nM
[13] = sgRNA knockout: sgNFE2L2, 10 nM
[14] = sgRNA knockout: sgNFE2L2, 100 nM
[15] = sgRNA knockout: sgNFE2L2, 1000 nM
[16] = sgRNA knockout: sgNFE2L2, 10000 nM
[17] = sgRNA knockout: sgSLC35F2, 10 nM
[18] = sgRNA knockout: sgSLC35F2, 100 nM
[19] = sgRNA knockout: sgSLC35F2, 1000 nM
[20] = sgRNA knockout: sgSLC35F2, 10000 nM
[21] = sgRNA knockout: sgXBP1, 1000 nM
[22] = sgRNA knockout: sgXBP1, 10000 nM

SMILES	relative cell number (sgRNA knockout: sgATF3, 10 nM)	relative cell number (sgRNA knockout: sgATF3, 100 nM)	relative cell number [1]	relative cell number [2]	relative cell number (sgRNA knockout: sgATF4, 10 nM)	relative cell number (sgRNA knockout: sgATF4, 100 nM)	relative cell number [3]	relative cell number [4]	relative cell number (sgRNA knockout: sgATF6, 10 nM)	relative cell number (sgRNA knockout: sgATF6, 100 nM)	relative cell number [5]	relative cell number [6]	relative cell number (sgRNA knockout: sgATG7, 10 nM)	relative cell number (sgRNA knockout: sgATG7, 100 nM)	relative cell number [7]	relative cell number [8]	relative cell number (sgRNA knockout: sgERN1, 10 nM)	relative cell number (sgRNA knockout: sgERN1, 100 nM)	relative cell number [9]	relative cell number [10]	relative cell number (sgRNA knockout: sgHSF2, 10 nM)	relative cell number (sgRNA knockout: sgHSF2, 100 nM)	relative cell number [11]	relative cell number [12]	relative cell number [13]	relative cell number [14]	relative cell number [15]	relative cell number [16]	relative cell number [17]	relative cell number [18]	relative cell number [19]	relative cell number [20]	relative cell number (sgRNA knockout: sgXBP1, 10 nM)	relative cell number (sgRNA knockout: sgXBP1, 100 nM)	relative cell number [21]	relative cell number [22]
CN/C(=N\CCSCc1nc[nH]c1C)NC#N [Cimetidine]	121 ± 12	103 ± 41	115 ± 22	138 ± 10	146 ± 72	114 ± 35	102 ± 25	108 ± 4.8	110 ± 27	134 ± 5.2	112 ± 41	166 ± 41	158 ± 8.3	98.8 ± 6.7	121 ± 22	118 ± 15	96.4 ± 12	109.5 ± 0.87	97.6 ± 8.7	106 ± 34	116.3 ± 0.73	99.6 ± 14	93 ± 23	110 ± 25	120 ± 14	120 ± 62	114 ± 13	117 ± 20	115 ± 35	125 ± 32	78.2 ± 6.4	122 ± 26	101 ± 24	116 ± 25	95 ± 7.2	107 ± 27
O=P1(N(CCCl)CCCl)NCCCO1 (stereo unspecified) [Cyclophosphamide]	123 ± 18	89.8 ± 31	107 ± 25	98.6 ± 2.5	107 ± 14	105 ± 52	91.5 ± 20	67.7 ± 15	78.5 ± 5.7	99.8 ± 3.6	89.1 ± 7	90.5 ± 4	103 ± 71	81.1 ± 8.4	100 ± 56	93.3 ± 5.8	98 ± 2.3	103.9 ± 0.9	93.7 ± 39	91.8 ± 32	104 ± 19	102 ± 11	93.6 ± 11	91.7 ± 6.4	140 ± 11	104 ± 10	78.4 ± 6.4	118 ± 12	104 ± 11	101 ± 23	105 ± 26	84.1 ± 14	116 ± 2.6	99.13 ± 0.92	97.5 ± 32	91.4 ± 10
Nc1ncn([C@H]2C[C@H](O)[C@@H](CO)O2)c(=O)n1 [Decitabine]	91.9 ± 3.6	72 ± 16	56.3 ± 6.1	47.7 ± 1.4	91.3 ± 18	70.7 ± 13	56.7 ± 14	42 ± 1.8	99.6 ± 12	77.1 ± 14	48.9 ± 30	43.2 ± 29	76.8 ± 24	112 ± 26	63.7 ± 20	31.8 ± 8.3	90.4 ± 18	79.6 ± 2.9	75.1 ± 9.6	40.6 ± 0.54	102 ± 14	94.2 ± 10	65.4 ± 3	37.8 ± 0.78	81.6 ± 1.2	91.9 ± 5.2	55.2 ± 2.5	39.1 ± 5.2	71.5 ± 5.1	61.3 ± 23	61.4 ± 5.8	26.5 ± 10	75.5 ± 9.8	80.6 ± 13	72.83 ± 0.55	39.6 ± 2.2
COc1cccc2c1C(=O)c1c(O)c3c(c(O)c1C2=O)C[C@@](O)(C(=O)CO)C[C@@H]3O[C@H]1C[C@H](N)[C@H](O)[C@H](C)O1 [Doxorubicin]	90.6 ± 24	52.8 ± 25	23.8 ± 2.9	6.49 ± 1.9	86.2 ± 19	40.3 ± 6.6	29.8 ± 0.045	11.8 ± 5.7	90.9 ± 31	28.6 ± 6.2	18.2 ± 7.8	7.87 ± 6.1	63.9 ± 22	36.7 ± 1.5	19.9 ± 8.1	7.352 ± 0.029	75.3 ± 5.9	40.4 ± 3	24.2 ± 0.33	13.7 ± 5	62.6 ± 0.97	46 ± 22	25.6 ± 4.7	5.75 ± 1.3	77.2 ± 11	41.6 ± 2.7	23.3 ± 2.9	7.55 ± 0.35	88.1 ± 3	45 ± 6.9	25 ± 17	8.553 ± 0.058	70.3 ± 18	43.3 ± 14	21 ± 2	8.6 ± 2.5
Nc1ccccc1NC(=O)c1ccc(CNC(=O)OCc2cccnc2)cc1 [Entinostat]	144 ± 22	116 ± 3.8	29.8 ± 7.2	33.3 ± 3.2	123 ± 45	154 ± 76	37.1 ± 4.8	40.1 ± 10	85.7 ± 20	125 ± 32	33.6 ± 4.5	30.4 ± 9.3	101 ± 30	128 ± 26	27.5 ± 4.3	36 ± 5.8	103 ± 4.8	94.8 ± 13	43.2 ± 17	30.9 ± 14	119 ± 6.2	105 ± 6.3	33 ± 2.4	36.4 ± 0.59	98.2 ± 8.2	122 ± 15	32.9 ± 5.6	31 ± 7.4	98.8 ± 75	129 ± 86	56.4 ± 6.9	30.8 ± 24	91.5 ± 7	107 ± 9.7	41.7 ± 1.6	28.1 ± 5.8
CCOc1ccccc1-n1c(C(C)N2CCN(C(=O)COc3ccc(Cl)cc3)CC2)nc2ccccc2c1=O (stereo unspecified) [Erastin]	99.2 ± 12	113 ± 48	114 ± 22	62.3 ± 12	92.1 ± 22	69.5 ± 29	124 ± 4.8	42.9 ± 9.5	118.7 ± 1.1	84.6 ± 0.87	110 ± 14	68.3 ± 7.7	83.9 ± 44	91.1 ± 22	87.6 ± 24	65.6 ± 12	116 ± 34	109 ± 14	97.4 ± 11	59.9 ± 19	82.8 ± 8.5	105 ± 5.5	86.3 ± 1.2	76.4 ± 5.3	112 ± 21	104 ± 31	104 ± 9.9	75.6 ± 7.6	102 ± 23	86.7 ± 4.1	55.1 ± 43	95.2 ± 56	126 ± 12	94.8 ± 9	101 ± 2.2	61.48 ± 0.35
